Experimental data: PubChem BioAssay AID1259298 (Sanger Institute, 2017)
Aim: 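Kinase knock-downs that cut colorectal cancer cell viability or act with targeted drugs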 (primary screen). Cells: HT55 human colorectal cancer cell line. Knock-down reagent: siRNA pool against human genes. Conditions: anchor drug BYL719 1 µM, cetuximab 5 µg/ml or trametinib 10 nM, or DMSO vehicle alone. Detection: 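Mean viability over replicates versus non-targeting pool, a robust z-score without drug, and per-drug synergy scores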. Direction: robust z-score, knock-down alone: higher = more cells remaining; low means essential gene; viability vs control pool, no drug: higher = more viable cells; synergy score with BYL719 and synergy score with cetuximab and synergy score with trametinib: higher = stronger synthetic lethality with the drug. Hit rule: 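Essential when the robust z-score for knock-down alone with DMSO is below -3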. Meaning of the calls: active = essential (knock-down alone); inactive = no change alone.
The whole screen tested 794 reagents; shown is a part drawn at random. In the full data, 20 (2.5%) are marked active. 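Calls rest only on the knock-down-alone score; drug synergy scores played no part in them.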 Entries without a mark were called inactive. No viability above 1 is reported: the scale is capped. Not stated in the record: the amount of reagent, the time to read-out.

gene knocked down	robust z-score, knock-down alone	viability vs control pool, no drug (fraction)	synergy score with BYL719	synergy score with cetuximab	synergy score with trametinib
DLG4 (discs large MAGUK scaffold protein 4)	0.58	1	-0.0527	-0.149	0.0447
IKBKG	0.248	0.974	-0.237	-0.149	-0.118
HK2 (hexokinase 2)	0.58	1	-0.272	-0.202	-0.133
ITPKC (inositol-trisphosphate 3-kinase C)	0.0816	0.961	-0.00176	-0.0613	-0.0149
RBKS (ribokinase)	0.58	1	-0.258	-0.184	-0.15
PRKCB (protein kinase C beta)	0.58	1	-0.17	0.00632	0.0727
CDK7 (cyclin dependent kinase 7)	0.58	1	-0.103	-0.211	0.114
WNK3 (WNK lysine deficient protein kinase 3)	0.58	1	-0.272	-0.197	-0.129
CAMK1D (calcium/calmodulin dependent protein kinase ID)	0.58	1	-0.121	-0.106	0.0474
TRIM27 (tripartite motif containing 27)	-0.169	0.941	-0.247	-0.254	0.00461
STK17B (serine/threonine kinase 17b)	0.523	0.996	-0.187	-0.0348	0.00209
DMPK (DM1 protein kinase)	0.58	1	-0.151	-0.21	-0.0215

Reprinted from the listing for reference:
gene knocked down	robust z-score, knock-down alone	viability vs control pool, no drug (fraction)	synergy score with BYL719	synergy score with cetuximab	synergy score with trametinib
CAMK1D (calcium/calmodulin dependent protein kinase ID)	0.58	1	-0.121	-0.106	0.0474
TRIM27 (tripartite motif containing 27)	-0.169	0.941	-0.247	-0.254	0.00461
STK17B (serine/threonine kinase 17b)	0.523	0.996	-0.187	-0.0348	0.00209
DMPK (DM1 protein kinase)	0.58	1	-0.151	-0.21	-0.0215

Further records follow.
gene knocked down	robust z-score, knock-down alone	viability vs control pool, no drug (fraction)	synergy score with BYL719	synergy score with cetuximab	synergy score with trametinib
SF3B1 (splicing factor 3b subunit 1)	-2.51	0.759	-0.197	-0.0154	-0.0373
KSR1 (kinase suppressor of ras 1)	-1.87	0.808	-0.164	0.113	0.119
DGKA (diacylglycerol kinase alpha)	-1.9	0.806	-0.184	-0.157	-0.0785
YES1 (YES proto-oncogene 1, Src family tyrosine kinase)	0.58	1	-0.0828	-0.211	-0.0451
NUCKS1	0.58	1	-0.272	-0.211	-0.194
ETNK1 (ethanolamine kinase 1)	-0.276	0.933	-0.188	0.0315	0.0154
GTF2H1 (general transcription factor IIH subunit 1)	-0.91	0.883	-0.148	-0.0562	-0.00266
ADCK2 (aarF domain containing kinase 2)	-0.0412	0.951	-0.0642	-0.221	0.105
FLT4 (fms related receptor tyrosine kinase 4)	0.58	1	-0.221	-0.0634	-0.0835
ITSN1 (intersectin 1)	0.58	1	-0.272	-0.211	-0.0486
PAK4 (p21 (RAC1) activated kinase 4)	0.58	1	-0.0959	-0.0244	-0.014
TTBK2 (tau tubulin kinase 2)	-0.21	0.938	-0.0877	-0.226	0.0904
CHKA (choline kinase alpha)	-1.48	0.839	-0.184	-0.257	-0.0241
TAOK2 (TAO kinase 2)	0.58	1	-0.222	-0.211	-0.165
ACVR1C (activin A receptor type 1C)	-0.3	0.931	-0.108	-0.194	-0.00944
CSNK2A1 (casein kinase 2 alpha 1)	0.58	1	-0.272	-0.211	-0.226
NIM1K (NIM1 serine/threonine protein kinase)	0.58	1	-0.0989	-0.0714	0.0424
NTN4 (netrin 4)	-0.846	0.889	-0.199	-0.0499	-0.0351
VRK2 (VRK serine/threonine kinase 2)	0.58	1	-0.114	-0.0642	-0.00217
MAP3K8 (mitogen-activated protein kinase kinase kinase 8)	-0.624	0.906	-0.141	0.00249	0.115
CDK5 (cyclin dependent kinase 5)	0.58	1	-0.198	-0.0272	0.0637
ERBB2 (erb-b2 receptor tyrosine kinase 2)	0.58	1	-0.142	-0.111	0.0202
